Experimental data: PubChem BioAssay AID743121 (NCATS, 2013)
This is a random part of about 26,000 reagents. 167 of all reagents (0.63%) count as active. 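Calls are per gene from RSA p-values that are not deposited; an individual active-marked siRNA can sensitise only weakly.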 Reagents against one gene are numbered here. No sequences are given here.

Aim: 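Knock-downs that sensitise breast cancer cells to camptothecin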 (primary screen)
Cell system: MDA-MB-231 cells, a human breast cancer line
Reagent: single siRNA against human genes, 20 nM siRNA (0.8 pmol per well)
Timing: 120 h (drug added 48 h after transfection, read 72 h later)
Conditions: camptothecin 20 nM (about EC30) for 72 h; vehicle 0.1% DMSO in parallel plates
Read-out: 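CellTiter-Glo ATP signal, scaled to control siRNA as percent viability; sensitisation given as log2 of untreated divided by camptothecin-treated viability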
Direction: log2 vehicle/camptothecin viability: higher = stronger sensitisation to camptothecin; viability with camptothecin and viability without drug: higher = more viable cells
Rule for the call: 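Active genes have an RSA gene-level p-value below 0.001, computed from the ratios of their separate siRNAs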

| target gene | siRNA no. | log2 vehicle/camptothecin viability | viability with camptothecin (% of control) | viability without drug (% of control) | call |
| --- | --- | --- | --- | --- | --- |
| CCT4 | 1 | -0.406 | 31.3 | 23.7 | inactive |
| CCT4 | 2 | -0.294 | 68.3 | 55.7 | inactive |
| CCT4 | 3 | -0.232 | 58.6 | 49.9 | inactive |
| CCT4 | 4 | -0.523 | 77.5 | 53.9 | inactive |
| MTRR | 1 | -0.149 | 76.4 | 69 | inactive |
| MTRR | 2 | -0.0345 | 105 | 103 | inactive |
| MTRR | 3 | -0.101 | 79.2 | 73.9 | inactive |
| MTRR | 4 | 0.0109 | 96.7 | 97.5 | inactive |
| STK17B | 1 | -0.343 | 71.8 | 56.6 | inactive |
| STK17B | 2 | 0.062 | 87.1 | 91 | inactive |
| STK17B | 3 | -0.309 | 98.5 | 79.6 | inactive |
| AXIN1 | 1 | 0.287 | 73.3 | 89.5 | inactive |
| AXIN1 | 2 | -0.329 | 81 | 64.5 | inactive |
| AXIN1 | 3 | 0.378 | 45.3 | 58.9 | inactive |
| AXIN1 | 4 | -0.017 | 24.4 | 24.2 | inactive |
| MIP | 1 | -0.0567 | 91.5 | 88 | inactive |
| MIP | 2 | -0.0985 | 101 | 94.3 | inactive |
| MIP | 3 | 0.0677 | 96.6 | 101 | inactive |
| MIP | 4 | 0.0543 | 67 | 69.5 | inactive |
| RPS27A | 1 | -0.548 | 41.4 | 28.3 | inactive |
| RPS27A | 2 | -0.628 | 45.4 | 29.4 | inactive |
| RPS27A | 3 | -0.574 | 50.1 | 33.7 | inactive |
| RPS27A | 4 | -1.05 | 65.3 | 31.5 | inactive |
| RFC4 | 1 | -0.163 | 74.2 | 66.2 | inactive |
| RFC4 | 2 | -0.346 | 89 | 70 | inactive |
| RFC4 | 3 | -0.523 | 60 | 41.8 | inactive |
| CRIM1 | 1 | -0.279 | 57.1 | 47 | inactive |
| CRIM1 | 2 | -0.304 | 68.2 | 55.3 | inactive |
| CRIM1 | 3 | -0.462 | 35.2 | 25.6 | inactive |
| CRIM1 | 4 | -0.0956 | 97.7 | 91.4 | inactive |
| MTAP | 1 | -0.000271 | 112 | 112 | inactive |
| MTAP | 2 | -0.177 | 118 | 105 | inactive |
| MTAP | 3 | -0.264 | 131 | 109 | inactive |
| MTAP | 4 | -0.173 | 115 | 102 | inactive |
| CHRNA10 | 1 | -0.221 | 84.1 | 72.2 | inactive |
| CHRNA10 | 2 | -0.45 | 41.8 | 30.6 | inactive |
| CHRNA10 | 3 | -0.295 | 111 | 90.9 | inactive |
| CHRNA10 | 4 | -0.377 | 59.3 | 45.7 | inactive |
| KCNMB2 | 1 | -0.0785 | 94.5 | 89.5 | inactive |
| KCNMB2 | 2 | 0.18 | 81.6 | 92.4 | inactive |
| KCNMB2 | 3 | -0.156 | 97.8 | 87.8 | inactive |
| KCNMB2 | 4 | -0.385 | 81.7 | 62.5 | inactive |
| RASSF5 | 1 | -0.183 | 87.5 | 77.1 | inactive |
| RASSF5 | 2 | 0.0992 | 43.9 | 47.1 | inactive |
| RASSF5 | 3 | -0.0907 | 93.9 | 88.2 | inactive |
| HCN1 | 1 | -0.701 | 90.6 | 55.7 | inactive |
| HCN1 | 2 | -0.143 | 106 | 95.7 | inactive |
| HCN1 | 3 | -0.14 | 72.1 | 65.4 | inactive |

Just “log2 vehicle/camptothecin viability” (8 entries from above):
CCT4 #3: -0.232
CCT4 #4: -0.523
MTRR #1: -0.149
MTRR #2: -0.0345
MTRR #3: -0.101
MTRR #4: 0.0109
STK17B #1: -0.343
STK17B #2: 0.062
